In US20080241274A1 (ZIOPHARM Oncology, Inc., priority 2006, published 2008):

Test system: MCF-7 ER-positive breast cancer
Experiment: Monolayer assay (DNA content by propidium iodide), single agents and indibulin combinations, MCF-7
Assay type: cell-based, human
Procedure: The monolayer assay determines the in vitro antitumor activity of test compounds and their capacity to inhibit survival and proliferation of established tumor cell lines. These effects can be determined by establishing the number of viable cells based on measuring the DNA content using propidium iodide. […] Between 5,000 and 10,000 cells were seeded in 96 well plates on Day 0 and the compounds were added 1 day later and incubated for 4 days. The activity was assessed by their IC50 and IC70 values.
Growth IC50 and IC70 values (Table 2) were determined using XLfit software package, and used to set the concentration ranges and drug ratios for the synergy detection part of the study.
Chou-Talalay median effect method was used to quantitatively characterize drug-drug interaction [Chou T. C. […] Test agents were applied to cells at the same time at a constant, equipotent ratio, based on the previously determined respective single agent IC50s (e.g. if IC50(drug A)=0.2 μM and IC50(drug B)=10 μM the ratio is set to 1:50). […] Additionally, single agent dose response was determined for the same concentration ranges as used for combination study.
The coefficient of interaction (CI(IC50)) at IC50 and coefficient of interaction under optimal experimental concentrations (CI(e)) were determined using CalcuSyn software package (Table 3, tests were performed in quadruplicate, mean values reported). […]

- IC50 (Homo sapiens, MCF7, MCF7, single agent (combination study)): 1.57 µg/mL
- Combination IC50 (MCF7, indibulin + tamoxifen (tamoxifen:indibulin 100:1), concentration of the named drug in the combination): 376 ng/mL
SMILES: CC/C(=C(\c1ccccc1)c1ccc(OCCN(C)C)cc1)c1ccccc1 [Tamoxifen]
